Assay results taken from the supplement of paper PMC10849652.
This is one part of the list. Residues, ends and D or L forms follow the SMILES beside them. *: point of attachment. Cbz = O=C(OCc1ccccc1)*

Sequences of proteins named here, by UniProt entry; tags and fusion partners are left off. A change or cut given only in a name is not applied to a line headed by its entry.
UniProt P13667: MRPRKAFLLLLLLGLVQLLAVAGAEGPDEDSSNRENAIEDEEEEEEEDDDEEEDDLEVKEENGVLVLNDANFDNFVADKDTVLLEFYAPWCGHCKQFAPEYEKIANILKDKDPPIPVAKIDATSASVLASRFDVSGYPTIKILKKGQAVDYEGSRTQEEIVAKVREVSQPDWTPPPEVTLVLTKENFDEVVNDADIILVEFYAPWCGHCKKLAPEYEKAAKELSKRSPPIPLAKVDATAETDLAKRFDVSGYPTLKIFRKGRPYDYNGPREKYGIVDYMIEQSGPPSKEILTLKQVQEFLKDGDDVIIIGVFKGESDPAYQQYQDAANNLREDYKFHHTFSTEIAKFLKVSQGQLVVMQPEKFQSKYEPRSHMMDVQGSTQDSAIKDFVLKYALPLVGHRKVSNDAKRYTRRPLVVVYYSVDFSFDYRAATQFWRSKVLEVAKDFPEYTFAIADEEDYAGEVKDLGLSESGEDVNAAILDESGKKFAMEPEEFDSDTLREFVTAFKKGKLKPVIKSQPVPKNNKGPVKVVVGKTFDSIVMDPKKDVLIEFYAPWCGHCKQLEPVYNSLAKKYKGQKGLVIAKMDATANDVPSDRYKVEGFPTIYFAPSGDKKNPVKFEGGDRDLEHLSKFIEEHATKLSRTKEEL
UniProt Q9NVE7: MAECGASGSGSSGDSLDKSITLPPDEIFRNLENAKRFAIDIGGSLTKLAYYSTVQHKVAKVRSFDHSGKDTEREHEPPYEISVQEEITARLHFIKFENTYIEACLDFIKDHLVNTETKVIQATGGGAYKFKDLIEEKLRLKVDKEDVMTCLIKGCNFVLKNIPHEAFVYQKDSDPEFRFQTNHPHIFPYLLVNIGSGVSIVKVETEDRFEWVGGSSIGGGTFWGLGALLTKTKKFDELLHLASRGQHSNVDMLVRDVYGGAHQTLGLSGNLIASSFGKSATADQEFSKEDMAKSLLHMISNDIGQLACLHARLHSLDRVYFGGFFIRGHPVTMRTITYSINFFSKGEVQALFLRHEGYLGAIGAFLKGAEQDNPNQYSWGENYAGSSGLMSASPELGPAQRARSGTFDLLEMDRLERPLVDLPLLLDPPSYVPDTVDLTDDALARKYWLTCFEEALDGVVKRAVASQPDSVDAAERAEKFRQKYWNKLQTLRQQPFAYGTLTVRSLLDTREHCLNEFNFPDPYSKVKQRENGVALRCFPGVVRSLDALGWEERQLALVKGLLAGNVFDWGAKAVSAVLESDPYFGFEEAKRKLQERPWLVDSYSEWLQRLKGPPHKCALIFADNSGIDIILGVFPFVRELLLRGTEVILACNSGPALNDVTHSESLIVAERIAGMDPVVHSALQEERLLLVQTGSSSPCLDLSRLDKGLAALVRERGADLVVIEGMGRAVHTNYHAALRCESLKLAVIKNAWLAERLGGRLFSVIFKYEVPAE
UniProt P43034: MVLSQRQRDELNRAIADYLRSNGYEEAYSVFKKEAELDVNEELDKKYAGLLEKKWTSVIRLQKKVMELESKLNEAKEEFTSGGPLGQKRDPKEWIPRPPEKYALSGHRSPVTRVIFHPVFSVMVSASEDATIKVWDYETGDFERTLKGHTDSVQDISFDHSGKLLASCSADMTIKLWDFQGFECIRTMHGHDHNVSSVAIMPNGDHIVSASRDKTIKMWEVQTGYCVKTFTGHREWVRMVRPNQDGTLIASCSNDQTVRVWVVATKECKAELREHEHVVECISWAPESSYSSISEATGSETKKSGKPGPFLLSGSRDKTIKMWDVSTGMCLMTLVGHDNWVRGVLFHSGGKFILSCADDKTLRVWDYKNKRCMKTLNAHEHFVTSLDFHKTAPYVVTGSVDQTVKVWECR
UniProt P22061: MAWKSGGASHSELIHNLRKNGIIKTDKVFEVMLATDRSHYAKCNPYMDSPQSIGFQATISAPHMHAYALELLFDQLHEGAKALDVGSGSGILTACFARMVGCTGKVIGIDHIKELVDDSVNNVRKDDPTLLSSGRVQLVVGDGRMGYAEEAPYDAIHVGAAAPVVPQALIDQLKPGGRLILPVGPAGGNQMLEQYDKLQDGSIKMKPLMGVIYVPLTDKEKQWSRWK
UniProt Q13371: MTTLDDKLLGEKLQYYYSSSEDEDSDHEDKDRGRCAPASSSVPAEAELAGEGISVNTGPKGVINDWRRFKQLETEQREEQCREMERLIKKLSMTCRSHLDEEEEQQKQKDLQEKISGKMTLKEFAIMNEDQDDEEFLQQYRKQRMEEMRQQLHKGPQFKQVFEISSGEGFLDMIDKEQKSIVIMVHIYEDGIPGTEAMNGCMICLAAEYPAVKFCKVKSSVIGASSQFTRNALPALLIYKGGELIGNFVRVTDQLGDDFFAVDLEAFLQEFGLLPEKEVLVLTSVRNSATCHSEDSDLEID
UniProt P56645: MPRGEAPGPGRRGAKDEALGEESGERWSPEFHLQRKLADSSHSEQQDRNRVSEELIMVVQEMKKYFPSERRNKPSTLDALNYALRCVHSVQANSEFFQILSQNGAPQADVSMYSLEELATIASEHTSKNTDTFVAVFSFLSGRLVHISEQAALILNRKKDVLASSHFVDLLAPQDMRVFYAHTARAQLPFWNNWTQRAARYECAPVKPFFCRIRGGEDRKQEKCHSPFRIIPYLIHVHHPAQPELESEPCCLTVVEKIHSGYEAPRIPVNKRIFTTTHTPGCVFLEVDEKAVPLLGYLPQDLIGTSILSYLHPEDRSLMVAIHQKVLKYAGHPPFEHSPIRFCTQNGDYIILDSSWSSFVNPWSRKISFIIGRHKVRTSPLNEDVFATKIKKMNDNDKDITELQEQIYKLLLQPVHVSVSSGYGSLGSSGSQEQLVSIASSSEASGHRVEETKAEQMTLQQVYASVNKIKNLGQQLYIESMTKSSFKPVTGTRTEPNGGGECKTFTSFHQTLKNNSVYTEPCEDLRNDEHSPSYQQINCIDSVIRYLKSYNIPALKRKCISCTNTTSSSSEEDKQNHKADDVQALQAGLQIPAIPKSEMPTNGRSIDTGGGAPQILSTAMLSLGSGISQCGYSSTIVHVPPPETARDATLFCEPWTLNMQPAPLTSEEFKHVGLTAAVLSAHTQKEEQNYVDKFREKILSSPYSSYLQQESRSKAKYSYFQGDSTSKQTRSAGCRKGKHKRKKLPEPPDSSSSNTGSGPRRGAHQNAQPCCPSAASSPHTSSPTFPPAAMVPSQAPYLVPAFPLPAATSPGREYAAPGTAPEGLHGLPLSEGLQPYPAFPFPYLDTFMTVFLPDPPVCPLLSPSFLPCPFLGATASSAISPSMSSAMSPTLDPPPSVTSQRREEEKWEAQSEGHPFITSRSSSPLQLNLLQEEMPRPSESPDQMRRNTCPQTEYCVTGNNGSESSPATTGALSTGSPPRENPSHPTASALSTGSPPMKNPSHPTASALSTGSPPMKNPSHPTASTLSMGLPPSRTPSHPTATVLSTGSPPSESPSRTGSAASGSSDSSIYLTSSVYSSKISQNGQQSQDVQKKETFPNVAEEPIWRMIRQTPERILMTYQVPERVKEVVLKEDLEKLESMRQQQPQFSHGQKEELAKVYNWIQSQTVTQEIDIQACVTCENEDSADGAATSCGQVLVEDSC
UniProt Q9BVG4: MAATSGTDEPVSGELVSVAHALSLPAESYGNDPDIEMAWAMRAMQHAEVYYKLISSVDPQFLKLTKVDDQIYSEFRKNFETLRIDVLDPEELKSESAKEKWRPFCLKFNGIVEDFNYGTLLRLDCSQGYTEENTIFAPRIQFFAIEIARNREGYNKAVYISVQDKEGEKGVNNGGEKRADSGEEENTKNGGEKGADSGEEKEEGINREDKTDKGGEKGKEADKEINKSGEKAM
UniProt P0DJ07: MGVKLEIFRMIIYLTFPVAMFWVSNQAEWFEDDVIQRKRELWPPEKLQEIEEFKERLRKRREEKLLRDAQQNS
UniProt Q9BYG5: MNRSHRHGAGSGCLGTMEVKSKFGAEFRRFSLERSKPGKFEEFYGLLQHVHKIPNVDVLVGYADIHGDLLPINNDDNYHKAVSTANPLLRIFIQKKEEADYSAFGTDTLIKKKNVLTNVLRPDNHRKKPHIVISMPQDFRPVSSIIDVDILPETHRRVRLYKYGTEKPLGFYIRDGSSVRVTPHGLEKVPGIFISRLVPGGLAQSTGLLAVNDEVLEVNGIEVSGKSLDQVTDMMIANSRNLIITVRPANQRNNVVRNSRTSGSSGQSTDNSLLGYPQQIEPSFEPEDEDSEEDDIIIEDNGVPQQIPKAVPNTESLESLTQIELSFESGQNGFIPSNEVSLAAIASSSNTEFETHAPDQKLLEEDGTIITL
UniProt O00330, whole entry, looked up: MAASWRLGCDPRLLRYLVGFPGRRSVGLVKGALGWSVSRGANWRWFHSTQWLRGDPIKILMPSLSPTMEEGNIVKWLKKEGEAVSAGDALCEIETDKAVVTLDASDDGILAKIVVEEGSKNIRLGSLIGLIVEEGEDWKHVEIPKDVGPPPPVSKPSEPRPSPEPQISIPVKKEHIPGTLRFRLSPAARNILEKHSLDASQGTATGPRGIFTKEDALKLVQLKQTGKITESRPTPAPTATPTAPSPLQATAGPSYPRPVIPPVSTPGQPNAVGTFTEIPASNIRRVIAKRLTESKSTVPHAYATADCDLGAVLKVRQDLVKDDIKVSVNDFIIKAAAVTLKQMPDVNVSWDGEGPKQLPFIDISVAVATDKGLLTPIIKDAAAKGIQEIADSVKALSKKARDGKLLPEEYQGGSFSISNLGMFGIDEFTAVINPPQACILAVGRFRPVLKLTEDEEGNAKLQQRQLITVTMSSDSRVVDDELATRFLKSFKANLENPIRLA
UniProt Q9H0N5: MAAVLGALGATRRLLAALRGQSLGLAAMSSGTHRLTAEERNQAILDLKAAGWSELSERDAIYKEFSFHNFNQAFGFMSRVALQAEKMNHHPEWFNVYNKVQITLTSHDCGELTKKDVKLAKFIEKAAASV
UniProt O75914, whole entry, looked up: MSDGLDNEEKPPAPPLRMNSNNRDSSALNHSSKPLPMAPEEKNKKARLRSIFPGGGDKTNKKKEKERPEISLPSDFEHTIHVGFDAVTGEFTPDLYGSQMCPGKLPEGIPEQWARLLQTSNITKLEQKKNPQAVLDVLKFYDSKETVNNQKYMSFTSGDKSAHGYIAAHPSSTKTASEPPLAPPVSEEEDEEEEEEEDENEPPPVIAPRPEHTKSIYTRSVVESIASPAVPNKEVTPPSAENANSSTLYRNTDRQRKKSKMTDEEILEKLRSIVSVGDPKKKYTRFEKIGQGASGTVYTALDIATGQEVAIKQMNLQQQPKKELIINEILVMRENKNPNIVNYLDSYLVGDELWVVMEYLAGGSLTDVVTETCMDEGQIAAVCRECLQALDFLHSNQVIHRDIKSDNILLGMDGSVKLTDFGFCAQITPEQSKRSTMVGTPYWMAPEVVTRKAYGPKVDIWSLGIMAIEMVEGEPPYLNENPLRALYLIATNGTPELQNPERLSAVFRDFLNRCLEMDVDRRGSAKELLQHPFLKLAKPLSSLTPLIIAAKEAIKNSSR
UniProt O00151: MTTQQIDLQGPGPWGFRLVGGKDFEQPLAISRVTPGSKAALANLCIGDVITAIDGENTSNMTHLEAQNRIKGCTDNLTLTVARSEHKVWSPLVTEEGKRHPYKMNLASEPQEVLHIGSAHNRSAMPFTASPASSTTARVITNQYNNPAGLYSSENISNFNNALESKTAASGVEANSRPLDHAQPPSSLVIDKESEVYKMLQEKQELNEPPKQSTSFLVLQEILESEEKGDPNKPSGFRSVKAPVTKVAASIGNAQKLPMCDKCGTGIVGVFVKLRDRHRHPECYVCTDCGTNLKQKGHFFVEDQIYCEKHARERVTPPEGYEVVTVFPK
UniProt Q96GD0: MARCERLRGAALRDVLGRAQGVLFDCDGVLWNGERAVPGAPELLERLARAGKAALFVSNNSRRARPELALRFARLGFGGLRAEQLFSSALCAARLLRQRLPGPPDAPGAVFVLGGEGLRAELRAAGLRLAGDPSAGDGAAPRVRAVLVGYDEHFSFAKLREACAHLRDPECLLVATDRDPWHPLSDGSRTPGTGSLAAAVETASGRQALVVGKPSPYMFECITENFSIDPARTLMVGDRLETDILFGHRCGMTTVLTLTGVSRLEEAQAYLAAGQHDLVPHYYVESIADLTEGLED
UniProt P30039: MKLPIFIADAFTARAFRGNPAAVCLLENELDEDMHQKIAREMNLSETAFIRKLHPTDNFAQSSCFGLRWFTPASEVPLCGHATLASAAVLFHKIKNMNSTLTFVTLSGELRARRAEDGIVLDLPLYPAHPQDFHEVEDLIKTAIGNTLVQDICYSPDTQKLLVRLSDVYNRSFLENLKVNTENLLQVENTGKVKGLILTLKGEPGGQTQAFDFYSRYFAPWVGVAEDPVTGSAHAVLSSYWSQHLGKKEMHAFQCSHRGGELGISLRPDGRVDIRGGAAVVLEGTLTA

What was measured:
Assay in all cases: log2 fold change, soluble protein after heating vs DMSO (PISA); higher = thermal stabilisation; K562 cells, 10 uM, 30 min; active = over 0.2 and 3.5 SD of the protein, either way, in both replicates (recomputed)
[1] = compound: C1COCCN1CCN2C3=CC=CC=C3N=C2NC(=O)C4=CC(=CC=C4)[N+](=O)[O-] [IRAK-1-4 Inhibitor I]
Summary of the method: (§1)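 Quantification of soluble protein used TMTpro 16plex LC-MS/MS, with channel sums equalised. Samples were the supernatant after 21,000xg for 90 min of pooled aliquots from K562 cells (2×10^6 cells/mL) treated with 10 μM compound for 30 min, heated for 3 min over 48°C-58°C, and extracted in PBS with 0.5% NP-40 at 4°C. Values, from duplicates, describe thermal stability against control samples on a log2 fold-change scale.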

[2] = compound: C=CC(=O)N1CCC[C@@H](n2nc(-c3ccc(Oc4ccccc4)cc3)c3c(N)ncnc32)C1 [ibrutinib]
Summary of the method: as §1

[3] = compound: CC(=O)c1cnc2ccc(-c3cc(Cl)c(O)c(Cl)c3)nc2c1N[C@H]1CC[C@H](CN(C)C)CC1
Summary of the method: as §1

[4] = compound: CC(C)(C)Cn1c(N)nc2ccc(-c3[nH]c(C(C)(C)C)nc3-c3ccc(F)cc3)nc21 [ralimetinib]
Summary of the method: as §1

[5] = compound: CC(C)(O)CC(=O)NCCn1ccc2ncnc(Nc3ccc(Oc4cccc(C(F)(F)F)c4)c(Cl)c3)c21
Summary of the method: as §1

[6] = compound: CC(C)C1=C2N=C(C=C(N2N=C1)NCC3=CC=CC=C3)NCCCCCCN
Summary of the method: as §1

[7] = compound: CC(C)C[C@@H](C=O)NC(=O)[C@H](CC(C)C)NC(=O)[C@H](CC(C)C)NC(=O)OCc1ccccc1
Summary of the method: as §1

[8] = compound: CC(C)N(C[C@H]1O[C@@H](n2cnc3c(N)ncnc32)[C@H](O)[C@@H]1O)[C@H]1C[C@@H](CCc2nc3cc(C(C)(C)C)ccc3[nH]2)C1 [pinometostat]
Summary of the method: as §1

[9] = compound: CC1=C(C(CC(=O)N1)C2=CC=C(C=C2)C(F)(F)F)C(=O)NC3=C(C=C4C(=C3)C=NN4)F
Summary of the method: as §1

[10] = compound: CC1=C(C2=C(C=C1)C(=O)C3=CC=CC=C3N2CCCN)C
Summary of the method: as §1

[11] = compound: CC1=C(C=C(C=C1)NC(=O)C2=CC(=CC=C2)C(C)(C)C#N)NC3=CC4=C(C=C3)N=CN(C4=O)C
Summary of the method: as §1

[12] = compound: CC1=C(C=C(C=C1)NC(=O)C2=CC(=CC=C2)N(C)C)NC(=O)C3=CC=C(C=C3)O
Summary of the method: as §1

[13] = compound: CC1=CC=C(C=C1)SC2=C3C=C(SC3=CN=C2)C(=O)N
Summary of the method: as §1

[14] = compound: CC1=NC(=CC=C1)C2=C(N=C(N2)C(C)(C)C)C3=CC4=NC=CN=C4C=C3
Summary of the method: as §1

[15] = compound: CCCCN(Cc1ccc(C(=O)NO)cc1)C(=O)Nc1ccccc1 [Nexturastat A]
Summary of the method: as §1

[16] = compound: CCCS(=O)(=O)Nc1ccc(F)c(C(=O)c2c[nH]c3ncc(-c4ccc(Cl)cc4)cc23)c1F [vemurafenib]
Summary of the method: as §1

[17] = compound: CCCS(=O)(=O)Nc1ccc(F)c(C(=O)c2c[nH]c3ncc(Cl)cc23)c1F
Summary of the method: as §1

[18] = compound: CCCc1cc(C)[nH]c(=O)c1CNC(=O)c1cc(-c2ccnc(N3CCN(C)CC3)c2)cc2c1cnn2C(C)C
Summary of the method: as §1

[19] = compound: CCN(CC)Cc1ccc2cc(COC(=O)Nc3ccc(C(=O)NO)cc3)ccc2c1 [givinostat]
Summary of the method: as §1

[20] = compound: CCN(CCCOc1ccc2c(Nc3cc(CC(=O)Nc4cccc(F)c4)[nH]n3)ncnc2c1)CCOP(=O)(O)O [barasertib]
Summary of the method: as §1

Measured: log2 fold change

PDIA4 (UniProt P13667)
inactive: [1] -0.024 | [2] -0.049 | [3] 0.02 | [4] 0.044 | [5] -0.005 | [6] -0.025 | [7] -0.009 | [8] 0.027 | [9] 0.004 | [10] 0.002 | [11] 0.026 | [12] -0.018 | [13] -0.047 | [14] -0.046 | [15] 0.013 | [16] -0.027 | [17] -0.042 | [18] 0.026 | [19] 0 | [20] -0.014

PANK4 (UniProt Q9NVE7)
inactive: [1] 0.053 | [2] -0.006 | [3] -0.023 | [4] 0.041 | [5] 0.007 | [6] 0.126 | [7] 0.022 | [8] -0.029 | [9] -0.049 | [10] 0.004 | [11] -0.006 | [12] -0.027 | [13] -0.035 | [14] -0.004 | [15] -0.054 | [16] -0.008 | [17] 0.02 | [18] 0.035 | [19] -0.02 | [20] 0.027

PAFAH1B1 (UniProt P43034)
inactive: [1] 0.007 | [2] 0.016 | [3] -0.011 | [4] -0.059 | [5] 0.008 | [6] 0.053 | [7] -0.048 | [8] -0.042 | [9] 0.008 | [10] 0.019 | [11] -0.006 | [12] -0.001 | [13] -0.009 | [14] -0.003 | [15] -0.045 | [16] 0.01 | [17] 0 | [18] -0.026 | [19] -0.039 | [20] -0.007

PCMT1 isoform 2 (UniProt P22061)
inactive: [1] 0.018 | [2] 0.008 | [3] -0.003 | [4] -0.045 | [5] -0.024 | [6] 0.002 | [7] -0.045 | [8] -0.025 | [9] -0.025 | [10] 0.073 | [11] 0.047 | [12] -0.025 | [13] -0.01 | [14] 0.048 | [15] -0.098 | [16] 0.032 | [17] 0 | [18] -0.012 | [19] -0.041 | [20] 0.009

PDCL (UniProt Q13371)
inactive: [1] 0 | [2] -0.009 | [3] 0.071 | [4] 0.059 | [5] -0.148 | [6] -0.102 | [7] -0.003 | [8] 0.003 | [9] 0.05 | [10] -0.154 | [11] -0.001 | [12] 0.057 | [13] -0.046 | [14] 0 | [15] -0.038 | [16] 0 | [17] -0.034 | [18] 0.021 | [19] 0.042 | [20] 0.115

PER3 isoform 2 (UniProt P56645)
inactive: [1] -0.017 | [2] 0.094 | [3] -0.028 | [4] -0.017 | [5] 0.035 | [6] 0.06 | [7] -0.018 | [8] -0.006 | [9] 0.016 | [10] -0.052 | [11] -0.034 | [12] 0.061 | [13] -0.064 | [14] 0.044 | [15] 0.027 | [16] 0.024 | [17] 0.04 | [18] 0.067 | [19] -0.039 | [20] -0.027

PBDC1 (UniProt Q9BVG4)
inactive: [1] 0.009 | [2] 0.005 | [3] -0.07 | [4] -0.042 | [5] -0.045 | [6] -0.026 | [7] -0.013 | [8] -0.006 | [9] 0.008 | [10] 0.061 | [11] -0.03 | [12] 0.001 | [13] 0.024 | [14] 0.002 | [15] -0.013 | [16] 0.052 | [17] 0 | [18] 0.013 | [19] 0.007 | [20] 0.067

PET100 (UniProt P0DJ07)
inactive: [1] 0.052 | [2] -0.004 | [3] -0.031 | [4] -0.076 | [5] -0.069 | [6] 0.121 | [7] -0.073 | [8] -0.028 | [9] -0.07 | [10] -0.023 | [11] -0.076 | [12] 0 | [13] 0 | [14] -0.043 | [15] 0 | [16] 0.043 | [17] -0.098 | [18] 0.047 | [19] 0.005 | [20] 0.019

PARD6B (UniProt Q9BYG5)
inactive: [1] 0.02 | [2] 0.064 | [3] -0.272 | [4] 0.007 | [5] -0.073 | [6] -0.048 | [7] 0.008 | [8] -0.003 | [9] 0.002 | [10] 0.039 | [11] -0.215 | [12] -0.02 | [13] 0.05 | [14] -0.075 | [15] 0.046 | [16] 0.003 | [17] 0.081 | [18] -0.105 | [19] 0.125 | [20] 0.002

Copied from above (2 entries):
PDIA4 (UniProt P13667)
inactive: [1] -0.024 | [2] -0.049 | [3] 0.02 | [4] 0.044 | [5] -0.005 | [6] -0.025 | [7] -0.009 | [8] 0.027 | [9] 0.004 | [10] 0.002 | [11] 0.026 | [12] -0.018 | [13] -0.047 | [14] -0.046 | [15] 0.013 | [16] -0.027 | [17] -0.042 | [18] 0.026 | [19] 0 | [20] -0.014

PANK4 (UniProt Q9NVE7)
inactive: [1] 0.053 | [2] -0.006 | [3] -0.023 | [4] 0.041 | [5] 0.007 | [6] 0.126 | [7] 0.022 | [8] -0.029 | [9] -0.049 | [10] 0.004 | [11] -0.006 | [12] -0.027 | [13] -0.035 | [14] -0.004 | [15] -0.054 | [16] -0.008 | [17] 0.02 | [18] 0.035 | [19] -0.02 | [20] 0.027

The results go on:

PDHX (UniProt O00330)
inactive: [1] -0.03 | [2] -0.05 | [3] 0.148 | [4] 0.081 | [5] 0.011 | [6] -0.02 | [7] 0.053 | [8] 0.002 | [9] 0.083 | [10] -0.034 | [11] 0.023 | [12] -0.008 | [13] -0.001 | [14] -0.075 | [15] 0.074 | [16] -0.068 | [17] -0.062 | [18] 0.053 | [19] 0.072 | [20] -0.057

PCBD2 (UniProt Q9H0N5)
inactive: [1] 0.031 | [2] -0.006 | [3] 0.027 | [4] -0.09 | [5] 0 | [6] -0.001 | [7] -0.046 | [8] -0.056 | [9] 0.005 | [10] -0.013 | [11] 0.01 | [12] 0.046 | [13] 0.003 | [14] 0.005 | [15] -0.062 | [16] -0.048 | [17] -0.033 | [18] -0.03 | [19] 0.01 | [20] 0.005

PAK3 isoform 3 (UniProt O75914)
inactive: [1] -0.01 | [2] 0.023 | [3] -0.007 | [4] -0.007 | [5] 0.025 | [6] 0.027 | [7] -0.083 | [8] 0.004 | [9] -0.046 | [10] 0.011 | [11] 0.054 | [12] 0 | [13] 0.087 | [14] 0.04 | [15] -0.093 | [16] 0.05 | [17] 0.066 | [18] 0.018 | [19] -0.033 | [20] 0.011

PDLIM1 (UniProt O00151)
inactive: [1] 0.046 | [2] 0.011 | [3] 0.002 | [4] 0.009 | [5] 0.022 | [6] 0.085 | [7] 0.008 | [8] -0.019 | [9] 0.032 | [10] -0.017 | [11] 0.006 | [12] 0.003 | [13] 0.039 | [14] -0.002 | [15] -0.053 | [16] -0.008 | [17] 0.042 | [18] -0.025 | [19] -0.04 | [20] -0.009

PDXP (UniProt Q96GD0)
inactive: [1] 0.049 | [2] -0.011 | [3] 0.009 | [4] -0.059 | [5] -0.044 | [6] 0.046 | [7] 0.021 | [8] -0.009 | [9] 0.014 | [10] 0.037 | [11] -0.021 | [12] -0.01 | [13] 0.03 | [14] -0.011 | [15] -0.113 | [16] -0.01 | [17] -0.004 | [18] -0.062 | [19] -0.03 | [20] 0.015

PDIA3 (UniProt P30101)
inactive: [1] -0.069 | [2] -0.076 | [3] 0.038 | [4] 0.064 | [5] 0.045 | [6] -0.063 | [7] -0.004 | [8] 0.013 | [9] 0.02 | [10] -0.03 | [11] 0.078 | [12] -0.041 | [13] -0.052 | [14] 0 | [15] -0.031 | [16] -0.015 | [17] -0.044 | [18] 0.092 | [19] -0.014 | [20] -0.013

PBLD (UniProt P30039)
inactive: [1] 0 | [2] -0.013 | [3] 0.005 | [4] 0.038 | [5] -0.033 | [6] -0.021 | [7] -0.027 | [8] 0.18 | [9] -0.012 | [10] 0.062 | [11] -0.088 | [12] 0.022 | [13] 0.005 | [14] -0.198 | [15] 0.044 | [16] 0.039 | [17] -0.034 | [18] 0.01 | [19] 0.037 | [20] 0.087
